Reference: patent publication US10364270B2, “Eye-care peptide, its composition and method of using the same” (PRO SUNFUN BIOTECH RESEARCH AND DEVELOPMENT CO., LTD., priority 2017, dated 2019)
Part of at least one peptide drawing is inferred or uncertain, most often the ends. Peptide text beside a SMILES is read from it.

System: HCEC corneal epithelial cells
Test: Transwell migration assay in HCEC cells
Type: cell-based, Human

SMILES: CC(C)C[C@H](NC(=O)[C@@H]1CCCN1C(=O)[C@H](CC(N)=O)NC(=O)[C@@H](N)CCCNC(=N)N)C(=O)N[C@@H](CCC(=O)O)C(=O)N[C@@H](CCC(=O)O)C(=O)N[C@H](C(=O)O)[C@@H](C)O [Peptide NO. 12, ArgAsnProLeuGluGluThr] (H-RNPLEET-OH; N-terminus and C-terminus assumed)
- migration of HCEC corneal epithelial cells (24 hours, 0, 2, 5, 10 and 25 μg/ml, FIG. 1A/1B (*: P<0.05)): enhanced the migration of HCEC corneal epithelial cells
- migration of HCEC corneal epithelial cells (48 hours, 0, 2, 5, 10 and 25 μg/ml, FIG. 2A/2B (**: P<0.01)): enhanced the migration of HCEC corneal epithelial cells
